Where a name gives a salt, the structure may show the parent alone. The list shows a part of the results. Most values come without repeats; read them as rough.
Tested on: patient-derived ovarian cancer cells (PDC)
Test: cell growth inhibition ratio vs untreated control (CCK8); higher = stronger inhibition of cell viability
Conditions: 10 µM; 48 h
Description: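 Natural product library (Topscience) screened at 10 µM final concentration for 48 h on ovarian cancer A2780 cells and patient-derived ovarian cancer cells (PDC) in 96-well plates; viability read by CCK8 and reported as inhibition ratio (%) relative to untreated control. Single-dose primary screen.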

Compound	cell growth inhibition ratio [%]
C[C@@H]1O[C@@H](O[C@@H]2[C@@H](O)[C@H](OCCc3ccc(O)c(O)c3)O[C@H](CO)[C@H]2OC(=O)/C=C/c2ccc(O)c(O)c2)[C@H](O)[C@H](O)[C@H]1O [Verbascoside]	-1.41
COc1ccc(-c2coc3cc(O)ccc3c2=O)cc1 [Formononetin]	-8.4
C[C@@H]1CC[C@@]2(OC1)O[C@H]1C[C@H]3[C@@H]4CC=C5C[C@@H](O[C@@H]6O[C@H](CO)[C@@H](O)[C@H](O)[C@H]6O)CC[C@]5(C)[C@H]4CC[C@]3(C)[C@H]1[C@@H]2C [Diosgenin glucoside]	30.3
CC(=O)O[C@]1(C)CC[C@@]23C[C@H]1C(C)(C)[C@@H]2CC[C@H]3C [Cedryl acetate]	5.47
Cc1cccc2c3c(ccc12)C1=C(C(=O)C3=O)[C@@H](C)CO1 [Dihydrotanshinone I]	83.3
O=C1c2cccc3c2[C@H](CCC3)CN1[C@@H]1CN2CCC1CC2 [Palonosetron hydrochloride]	-2.98
COc1ccc(-c2oc3cc(O)cc(O)c3c(=O)c2O)cc1 [kaempferide]	18.9
CC1(C)CC[C@]2(C(=O)O)CC[C@]3(C)C(=CC[C@@H]4[C@@]5(C)CC[C@H](O)[C@@](C)(CO)[C@@H]5CC[C@]43C)[C@@H]2C1 [Hederagenin]	-13.3
NC(=O)CC[C@H](N)C(=O)O [L-Glutamine]	-13.2
C=C1CC[C@H]2O[C@]2(C)CC[C@@H]2[C@@H]1CC2(C)C [Caryophyllene oxide]	-11.8
O=C1c2c(O)cc(O)cc2OC(c2ccc(O)c(O)c2)C1O (centres undefined) [Taxifolin (Dihydroquercetin)]	-7.27
COC(=O)C1=CO[C@@H](O[C@@H]2O[C@H](CO)[C@@H](O)[C@H](O)[C@H]2O)[C@H]2[C@@H]1[C@H](O)C[C@]2(C)O	-21
N[C@@H](Cc1c[nH]c2ccc(O)cc12)C(=O)O [5-hydroxytryptophan (5-HTP)]	-12.5
COc1cccc2oc(-c3ccccc3)cc(=O)c12 [5-methoxyflavone]	8.81
COC(=O)C1=CO[C@@H](O[C@@H]2O[C@H](CO)[C@@H](O)[C@H](O)[C@H]2O)[C@@H]2[C@H](C)O[C@@H](O)C[C@H]12 [Morroniside]	-7.73
C=C1C[C@@]23CC[C@H]4[C@@](C)(CCC[C@@]4(C)C(=O)O[C@@H]4O[C@H](CO)[C@@H](O)[C@H](O)[C@H]4O)[C@@H]2CC[C@]1(O[C@@H]1O[C@H](CO)[C@@H](O)[C@H](O)[C@H]1O[C@@H]1O[C@H](CO)[C@@H](O)[C@H](O)[C@H]1O)C3 [Stevioside]	-7.07
CCc1c2c(nc3ccc(OC(=O)N4CCC(N5CCCCC5)CC4)cc13)-c1cc3c(c(=O)n1C2)COC(=O)[C@]3(O)CC [Irinotecan hydrochloride trihydrate]	41.7
OC[C@@H](O)[C@H](O)[C@@H](O)CO [Xylitol]	1.37
C=CCc1ccc(O)c(-c2ccc(O)c(CC=C)c2)c1 [Honokiol]	6.24

An excerpt from further up, as a working copy:
Compound	cell growth inhibition ratio [%]
NC(=O)CC[C@H](N)C(=O)O [L-Glutamine]	-13.2
C=C1CC[C@H]2O[C@]2(C)CC[C@@H]2[C@@H]1CC2(C)C [Caryophyllene oxide]	-11.8
